# Measurements: PubChem BioAssay AID504834 (National Center for Advancing Translational Sciences (NCATS), 2011)
# Screen size: about 320,000 compounds; about 22,000 (6.9%) were called active. Inconclusive results, whose numbers are uncertain, are shown with a selection of clear calls. Calls come from the whole dose curve; as a rule, active = well fitted inhibition curve with a large enough effect; inconclusive = small, poorly fitted or top-dose-only effect, or another doubt; inactive = no such curve, though single readings can be large or run the other way. Where the call is inconclusive, the potency comes from a doubtful curve fit.
# Test: Primary qHTS for delayed death inhibitors of the malarial parasite plastid, 96 hour incubation
# Conditions: P. falciparum luciferase reporter growth; series mostly up to 28.7 µM; activity change, negative = inhibition: at the top concentration
# Summary of the method: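 P. falciparum expressing integrated firefly luciferase, in erythrocytes at 2% hematocrit, 0.05% parasitemia, incubated with compounds 96 h at 37 C, 5% CO2. Growth inhibition read as loss of luminescence; two-generation exposure targets delayed-death apicoplast inhibitors.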
# % is set by controls: 0 for no effect and ±100 for the full control effect; potency is the fitted concentration of half-maximal effect.
Compound,"activity change, negative = inhibition",Potency
CCOC(=O)c1cccc(NC(=O)c2ccc(N(C)C)cc2)c1,inactive: 30.9%,
Cc1ccnn2cc3c(=O)n(C)c(=O)n(C)c3c12,inactive: 84.5%,
CCOC(=O)c1cc(-c2ccc(OC)cc2F)nc2c1c(C)nn2CCC#N,,"inconclusive: 14.7 µM [inhibitor, single point]"
C=CCOc1ccc(C2/C(=C(\O)c3c(C)[nH]c(C(=O)OC)c3C)C(=O)C(=O)N2CCN(C)C)cc1 (configuration not stated),,"inconclusive: 3.29 µM [inhibitor, full curve]"
Cc1ccc(S(=O)(=O)Nc2ccc(Br)cc2/C=N/n2cnnc2)cc1,,active: 3.7 µM
Cc1cc(NC(=O)CCc2ccc(S(=O)(=O)N3CCOCC3)cc2)n(-c2ccccc2)n1,,"inconclusive: 18.5 µM [inhibitor, single point]"
CCOC(=O)c1nc(NCc2ccccc2)sc1C,inactive: -4.94%,
O=C(CN1CCN(CC(=O)Nc2ccccc2Cl)CC1)NCC1(N2CCOCC2)CCCCC1,,"inconclusive: 5.86 µM [inhibitor, partial curve]"
CC1CCc2c(sc(/N=C/c3ccco3)c2C(N)=O)C1 (configuration not stated),inactive: 13%,
Nc1nc(N2CCN(c3ccccn3)CC2)nc2ccccc12,,"inconclusive: 18.5 µM [inhibitor, single point]"
C=CCN(C(=O)CCC(=O)Nc1cc(C)on1)C(C(=O)NC1CCCC1)c1ccc(Cl)cc1 (configuration not stated),,"inconclusive: 2.62 µM [inhibitor, full curve]"
O=C(Nc1cc(S(=O)(=O)Nc2ccc(Cl)cc2)ccc1N1CCCCC1)c1ccc(F)cc1,,"inconclusive: 3.29 µM [inhibitor, partial curve]"
COc1ccc(/C=C(\C#N)C(=O)NCc2ccccc2)cc1O,inactive: -0.194%,
Cc1cc(NC(=O)Nc2ccc(F)cc2)no1,,"inconclusive: 1.85 µM [inhibitor, partial curve, poor fit]"
Cc1nc(N2CCCCC2)c2c(C)c(C(=O)Nc3ccc4c(c3)OCCO4)sc2n1,inactive: -6.34%,
COc1ccc(C2Nc3ccccc3C(=O)N2Cc2ccccc2)cc1CSc1ccccn1 (configuration not stated),,"inconclusive: 9.28 µM [inhibitor, single point]"
N=C(N)SCc1ccc(Cl)cc1Cl,,active: 10.4 µM
COc1ccc2nc(N(CCN(C)C)C(=O)c3ccc4ccccc4c3)sc2c1,inactive: -11.9%,
Cc1cccc(OCC2=NS(=O)(=O)c3ccccc3N2)c1,inactive: 3.89%,
O=C(COC(=O)c1cc(=O)[nH]c2ccccc12)NCc1ccc(F)cc1,,"inconclusive: 18.5 µM [inhibitor, single point]"
CCc1ccc(NC(=S)N2CCN(c3cccc(C(F)(F)F)c3)CC2)cc1,inactive: 54.7%,
COCCN(C(=O)c1ccco1)c1nnc(-c2ccc(OC)c(OC)c2)s1,inactive: -23.9%,
CCOC(=O)c1sc(NC(=O)c2ccco2)nc1-c1ccccc1,inactive: 12%,
CSc1ccc(/C=N/NC(=O)c2cc(O)cc(O)c2)cc1,inactive: 55.2%,

# Quoted at random: 2 compounds from above.
Compound,"activity change, negative = inhibition",Potency
CCOC(=O)c1cccc(NC(=O)c2ccc(N(C)C)cc2)c1,inactive: 30.9%,
CC1CCc2c(sc(/N=C/c3ccco3)c2C(N)=O)C1 (configuration not stated),inactive: 13%,

# The results go on:

Compound,"activity change, negative = inhibition",Potency
CN1CCCC(C(=O)c2ccc(Cl)cc2)C1 (configuration not stated),,"inconclusive: 18.5 µM [inhibitor, single point]"
Cc1nc2c(-c3ccccc3)c(C)nn2c(N)c1-c1ccccc1,,"inconclusive: 18.5 µM [inhibitor, single point]"
COCCN1C(=O)/C(=C/c2c(OC)cc(OC)cc2OC)C(=O)N(c2ccccc2)C1=O,,"inconclusive: 14.7 µM [inhibitor, single point]"
CC(NC(=S)Nc1ccccc1Cl)C(c1cccs1)N1CCCC1 (configuration not stated),,active: 11.7 µM
Cc1cc(OCC(O)CN2C(C)CCCC2C)ccc1C(C)C (configuration not stated),,"inconclusive: 13.1 µM [inhibitor, single point]"
O=C(NCc1cccnc1)c1cccc(S(=O)(=O)N2CCCC2)c1,inactive: 7.1%,
OCC[C@@H]1C[C@H](O)[C@@H](O)[C@@]2(OCCCc3ccccc32)O1,inactive: -5.28%,
CN(Cc1ccc(F)cc1)C(=O)CCc1nnc(-c2ccccc2)o1,,active: 8.28 µM
O=C(N/N=C/c1ccc([N+](=O)[O-])cc1)c1ccc(COc2ccccc2-c2ccccc2)cc1,,"inconclusive: 4.15 µM [inhibitor, single point]"
COc1ccc(CCN2C(=O)CCC2(C)C(=O)NCc2cccnc2)cc1OC (configuration not stated),,"inconclusive: 0.0026 µM [inhibitor, full curve, poor fit]"
COc1ccc2ccccc2c1CNC(C)c1ccccc1 (configuration not stated),,"inconclusive: 18.5 µM [inhibitor, single point]"
CC(C)CCN(N=O)[C@@H](Cc1ccccc1)CN(N=O)[C@@H](Cc1ccccc1)CN(C)N=O,,"inconclusive: 18.5 µM [inhibitor, single point]"
CC(C)n1cc(-c2ccc(Cl)cc2)cc(C#N)c1=O,,"inconclusive: 8.28 µM [inhibitor, partial curve, poor fit]"
COc1c(Br)cc(/C=N/n2c(-c3ccccc3)n[nH]c2=S)c(O)c1Br,,"inconclusive: 4.65 µM [inhibitor, full curve, poor fit]"
COCc1cc(CN(C)C(=O)C2CCC(=O)N(Cc3cccc(OC)c3)C2)[nH]n1 (configuration not stated),,active: 9.28 µM
O=C(CNC(c1ccccc1)c1ccccc1)Nc1ccccc1Br,,"inconclusive: 16.5 µM [inhibitor, single point]"
Cc1ccc(C(=O)N[C@H](C(=O)Nc2cc(Cl)cc(Cl)c2)C(C)C)cc1,,"inconclusive: 2.08 µM [inhibitor, partial curve, poor fit]"
COc1ccccc1NS(=O)(=O)c1ccc2c(c1)CCN2C(=O)CCC(=O)O,,"inconclusive: 14.7 µM [inhibitor, partial curve]"
COc1ccccc1/C=N/NC(=O)c1ccc(C)nc1,,"inconclusive: 0.586 µM [inhibitor, full curve, poor fit]"
Cc1nc(N2CCN(c3ccccc3O)CC2)c2c(-c3ccccc3)csc2n1,,"inconclusive: 10.4 µM [inhibitor, partial curve]"
O=C(NCCN1CCCCC1)Nc1ccccc1F,,"inconclusive: 14.7 µM [inhibitor, partial curve]"
COc1ccc(NC(=O)C2CC(=O)N(c3cc(C)ccc3C)C2)cc1 (configuration not stated),,"inconclusive: 2.94 µM [inhibitor, partial curve]"
CCOC(=O)CN(C(=O)COC(=O)C1(c2ccccc2)CC1)c1ccc(F)cc1,,"inconclusive: 18.5 µM [inhibitor, single point]"
O=C(Cc1ccc(-n2c(=O)c3ccccc3n(Cc3ccccc3F)c2=O)cc1)NCC1CCCO1 (configuration not stated),,active: 4.65 µM

# Copied from the results shown (two entries):
Compound,"activity change, negative = inhibition",Potency
COc1c(Br)cc(/C=N/n2c(-c3ccccc3)n[nH]c2=S)c(O)c1Br,,"inconclusive: 4.65 µM [inhibitor, full curve, poor fit]"
COCc1cc(CN(C)C(=O)C2CCC(=O)N(Cc3cccc(OC)c3)C2)[nH]n1 (configuration not stated),,active: 9.28 µM

# Next part.

Compound,"activity change, negative = inhibition",Potency
COc1ccc(OC(=O)COc2ccc(Cl)cc2)cc1,,"inconclusive: 18.5 µM [inhibitor, single point]"
CC1CCCCC1NC(=O)CCS(=O)(=O)c1ccc2c(c1)NC(=O)CO2 (configuration not stated),,"inconclusive: 9.28 µM [inhibitor, partial curve]"
COc1ccc(NCc2ccc(OC)c(OC)c2)cc1,inactive: 69.8%,
Cc1cc(C(F)(F)F)nc(SCC(=O)c2cccc([N+](=O)[O-])c2)n1,,"inconclusive: 5.22 µM [inhibitor, partial curve, poor fit]"
Cc1ccc2cccc(S(=O)(=O)Nc3c(C)n(C)n(-c4ccccc4)c3=O)c2n1,,"inconclusive: 18.5 µM [inhibitor, single point]"
CCOC(=O)c1cc(OC(=O)c2cccc([N+](=O)[O-])c2)n(-c2ccccc2)n1,,"inconclusive: 1.47 µM [inhibitor, partial curve, poor fit]"
CC(=O)NCC(=O)NC(C(=O)Nc1ccc2c(c1)OCCO2)c1ccc(C)cc1 (configuration not stated),,"inconclusive: 11.7 µM [inhibitor, single point]"
CC1=C(C#N)C(c2ccoc2)C(C(=O)OCc2ccccc2)=C(N)S1 (configuration not stated),inactive: 77.2%,
Clc1ccc(/C=N/Nc2nc(Cl)nc3ccccc23)cc1,,"inconclusive: 14.7 µM [inhibitor, single point]"
CCCCNCc1cc(OCC)c(OCC(N)=O)cc1Br,,"inconclusive: 18.5 µM [inhibitor, single point]"
O=C(Nc1cnn(Cc2ccccc2)c1)c1nc2ncccn2n1,,active: 2.62 µM
CC(Cc1ccc(Cl)cc1)N1CCC(n2nccc2NC(=O)C2CCCC2)CC1 (configuration not stated),,"inconclusive: 0.0026 µM [inhibitor, full curve, poor fit]"
C/C(=N\Nc1ccc2nncn2n1)c1ccco1,inactive: 21.6%,
COc1ccc(NS(=O)(=O)c2ccc(NC(=O)c3ccc(N(C)S(C)(=O)=O)cc3)cc2)c(OC)c1,inactive: -18.3%,
CCOC(=O)N1CCN(C(=O)Cc2ccc(-n3c(=S)[nH]c4ccccc4c3=O)cc2)CC1,,active: 13.1 µM
CC(=O)c1c(C)[nH]c(C(=O)Nc2cc(S(=O)(=O)N3CCCCC3)ccc2C)c1C,,active: 13.1 µM
Cc1noc(C)c1COc1ccccc1C(=O)N1CCN(S(=O)(=O)c2cccc([N+](=O)[O-])c2)CC1,,"inconclusive: 18.5 µM [inhibitor, single point]"
CNC[C@@H](C)NC[C@@H](Cc1ccccc1)NCCc1ccccc1,,active: 2.94 µM
CCc1ccc(-c2cc(C)no2)cc1S(=O)(=O)Nc1cc(C)ccn1,,"inconclusive: 18.5 µM [inhibitor, single point]"
CC1CN(CC(=O)NCc2ccc(Cl)cc2)CC(C)O1 (configuration not stated),inactive: 18.7%,
CC(=O)c1cccc(NC(=O)c2ccc(N(Cc3ccc(C)cc3)S(C)(=O)=O)cc2)c1,,"inconclusive: 9.28 µM [inhibitor, partial curve]"
O=S(=O)(c1ccc(Oc2ccc(F)c(Cl)c2)nc1)N1CCOCC1,inactive: 35.5%,
O=C(CSc1ccccn1)N/N=C/c1ccccc1[N+](=O)[O-],inactive: -25.1%,
CCOc1ccc(NC(=O)CS(=O)CC(=O)N(CC(=O)NC(C)(C)C)C2CCCC2)cc1 (configuration not stated),,"inconclusive: 10.4 µM [inhibitor, partial curve]"
